Laboratory results: the supplement of paper PMC6078165
± gives the standard deviation of the averaged measurements. The reference is the same well before dosing, and untreated signal decays as well.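 The cancer cells are triple-negative breast cancer lines of basal-like or mesenchymal-like type, grown without fibroblasts. A drop in red signal reflects loss of mitochondrial integrity, a stand-in for apoptotic death.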

How the values were obtained:
MDAMB436 = experiment: relative JC-1 red fluorescence (viability) vs pre-drug, monoculture (fraction); higher = more viable cancer cells; conditions: coculture fibroblast: none (monoculture)
Method: (§1)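 JC-1 labelled TNBC cells grown in monoculture (density kept equal with unlabelled cancer cells) in 384-well plates in FluoroBrite medium, treated with one of 42 anticancer drugs at 0.1, 1, 10 or 100 uM. JC-1 red fluorescence (mitochondrial integrity, surrogate of apoptotic death) was read by plate reader every 8 h for 72 h. Values are normalised to each well's pre-drug value, with background from alamethicin. The stock of one drug was tenfold lower, so its dose labels may be too high. Monoculture values are repeated alongside each fibroblast plate and are averaged here.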

MDAMB231 = experiment: as above; conditions: coculture fibroblast: none (monoculture)
Method: as §1

Nc1ncn([C@@H]2O[C@H](CO)[C@@H](O)[C@H]2O)c(=O)n1 [Azacitidine]
relative JC-1 red fluorescence
Conditions	8 h	16 h	24 h	32 h	40 h	48 h	56 h	64 h	72 h
MDAMB231, 0.1 µM	0.738 ± 0.033	0.688 ± 0.029	0.772 ± 0.1	0.662 ± 0.089	0.632 ± 0.095	0.664 ± 0.096	0.652 ± 0.1	0.713 ± 0.11	0.726 ± 0.12
MDAMB231, 1 µM	0.739 ± 0.026	0.6974 ± 0.0019	0.684 ± 0.071	0.636 ± 0.03	0.599 ± 0.046	0.601 ± 0.059	0.58 ± 0.076	0.618 ± 0.084	0.615 ± 0.1
MDAMB231, 10 µM	0.819 ± 0.11	0.702 ± 0.0077	0.838 ± 0.067	0.727 ± 0.047	0.707 ± 0.061	0.716 ± 0.074	0.717 ± 0.089	0.772 ± 0.11	0.781 ± 0.11
MDAMB231, 100 µM	0.7204 ± 0.0023	0.723 ± 0.024	0.621 ± 0.013	0.687 ± 0.013	0.651 ± 0.019	0.615 ± 0.014	0.584 ± 0.013	0.584 ± 0.016	0.564 ± 0.015
MDAMB436, 0.1 µM	0.859 ± 0.034	0.8881 ± 0.0062	0.9716 ± 0.0067	0.9908 ± 0.0021	0.871 ± 0.013	0.887 ± 0.039	0.792 ± 0.01	0.835 ± 0.047	0.798 ± 0.11
MDAMB436, 1 µM	0.855 ± 0.008	0.7273 ± 0.0024	0.749 ± 0.013	0.703 ± 0.013	0.694 ± 0.021	0.683 ± 0.025	0.686 ± 0.029	0.692 ± 0.034	0.694 ± 0.04
MDAMB436, 10 µM	0.874 ± 0.027	0.79 ± 0.019	0.823 ± 0.045	0.785 ± 0.054	0.792 ± 0.076	0.798 ± 0.082	0.807 ± 0.087	0.808 ± 0.089	0.827 ± 0.092
MDAMB436, 100 µM	0.8686 ± 0.0073	0.762 ± 0.016	0.7901 ± 0.004	0.7531 ± 0.0074	0.717 ± 0.013	0.704 ± 0.02	0.703 ± 0.023	0.695 ± 0.028	0.691 ± 0.029

O=NN(CCCl)C(=O)NCCCl [Carmustine]
relative JC-1 red fluorescence
Conditions	8 h	16 h	24 h	32 h	40 h	48 h	56 h	64 h	72 h
MDAMB231, 0.1 µM	0.693 ± 0.0034	0.66 ± 0.013	0.5773 ± 0.0022	0.555 ± 0.0075	0.501 ± 0.01	0.479 ± 0.0067	0.4421 ± 0.00075	0.4501 ± 0.0034	0.4365 ± 0.0026
MDAMB231, 1 µM	0.6968 ± 0.0062	0.6485 ± 0.0014	0.6234 ± 0.0041	0.566 ± 0.019	0.525 ± 0.023	0.513 ± 0.012	0.49 ± 0.0073	0.509 ± 0.0066	0.5103 ± 0.0036
MDAMB231, 10 µM	0.736 ± 0.036	0.718 ± 0.019	0.612 ± 0.076	0.606 ± 0.065	0.567 ± 0.079	0.553 ± 0.089	0.518 ± 0.1	0.531 ± 0.1	0.529 ± 0.12
MDAMB231, 100 µM	0.6569 ± 0.0054	0.641 ± 0.012	0.597 ± 0.028	0.5653 ± 0.0014	0.519 ± 0.011	0.497 ± 0.024	0.473 ± 0.025	0.499 ± 0.034	0.512 ± 0.033
MDAMB436, 0.1 µM	0.831 ± 0.0025	0.7314 ± 0.0044	0.71 ± 0.0089	0.648 ± 0.0077	0.637 ± 0.0081	0.6171 ± 0.004	0.607 ± 0.0066	0.601 ± 0.0063	0.6034 ± 0.0036
MDAMB436, 1 µM	0.7986 ± 0.005	0.7753 ± 0.0073	0.805 ± 0.012	0.759 ± 0.013	0.7819 ± 0.0018	0.781 ± 0.015	0.785 ± 0.014	0.795 ± 0.021	0.805 ± 0.018
MDAMB436, 10 µM	0.8623 ± 0.0035	0.76 ± 0.008	0.73819 ± 0.00066	0.6834 ± 0.0046	0.66532 ± 0.00025	0.646 ± 0.0079	0.6309 ± 0.00066	0.6201 ± 0.0047	0.621 ± 0.0083
MDAMB436, 100 µM	0.771 ± 0.011	0.8134 ± 0.0014	0.8472 ± 0.0017	0.8159 ± 0.0032	0.8364 ± 0.0036	0.8508 ± 0.0035	0.858 ± 0.0019	0.8804 ± 0.0037	0.9086 ± 0.0013
